{"source": "PubChem BioAssay AID686943 (Drosophila RNAi Screening Center, 2013)", "screen": "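Knockdowns that increase or decrease active ERK after insulin receptor stimulation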 (primary screen)", "cell system": "Drosophila S2R+ haemocyte-like cells expressing YFP-tagged ERK (Rolled)", "knock-down reagent": "long dsRNA against Drosophila genes", "challenge": "insulin stimulation versus unstimulated cells; dose and duration not given", "detection": "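Per-plate z-scores of phospho-ERK immunostaining normalised to YFP-tagged ERK, measured with and without insulin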", "scale": "replicate 1, z-score of dpERK with insulin and replicate 2, z-score of dpERK with insulin: higher = more active ERK per ERK-YFP after insulin", "note": "The deposit covers about 23,000 reagents; this is an unselected part of those with a known target gene and a result. 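Extra replicates exist only for a retested subset of genes; insulin dose and duration not given; both raised and lowered dpERK matter.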 The numbers tell different reagents against one gene apart. Names joined by + are all predicted targets of the reagent. Not all columns of the deposit are shown. Reagent sequences are not shown. Not given: the amount of reagent, the time to read-out."}
{"target gene":"CG1662","dsRNA no.":1,"replicate 1, z-score of dpERK with insulin":0.9,"replicate 2, z-score of dpERK with insulin":0.26}
{"target gene":"Cngl","dsRNA no.":1,"replicate 1, z-score of dpERK with insulin":-0.1,"replicate 2, z-score of dpERK with insulin":0.13}
{"target gene":"Cngl","dsRNA no.":2,"replicate 1, z-score of dpERK with insulin":0.26,"replicate 2, z-score of dpERK with insulin":0.38}
{"target gene":"Cngl","dsRNA no.":3,"replicate 1, z-score of dpERK with insulin":-4.06,"replicate 2, z-score of dpERK with insulin":-2.9}
{"target gene":"CG7202","dsRNA no.":1,"replicate 1, z-score of dpERK with insulin":0.76,"replicate 2, z-score of dpERK with insulin":0.06}
{"target gene":"Rbp6","dsRNA no.":1,"replicate 1, z-score of dpERK with insulin":0.65,"replicate 2, z-score of dpERK with insulin":0.04}
{"target gene":"Rbp6","dsRNA no.":2,"replicate 1, z-score of dpERK with insulin":-0.25,"replicate 2, z-score of dpERK with insulin":-0.6}
{"target gene":"Rbp6","dsRNA no.":3,"replicate 1, z-score of dpERK with insulin":-0.05,"replicate 2, z-score of dpERK with insulin":-0.01}
{"target gene":"Rbp6","dsRNA no.":4,"replicate 1, z-score of dpERK with insulin":0.45,"replicate 2, z-score of dpERK with insulin":-0.23}
{"target gene":"Rbp6","dsRNA no.":5,"replicate 1, z-score of dpERK with insulin":0.26,"replicate 2, z-score of dpERK with insulin":0.18}
{"target gene":"CG13829","dsRNA no.":1,"replicate 1, z-score of dpERK with insulin":-0.05,"replicate 2, z-score of dpERK with insulin":0.21}
{"target gene":"CG7702","dsRNA no.":1,"replicate 1, z-score of dpERK with insulin":0.8,"replicate 2, z-score of dpERK with insulin":0.15}
{"target gene":"Ppat-Dpck","dsRNA no.":1,"replicate 1, z-score of dpERK with insulin":-0.58,"replicate 2, z-score of dpERK with insulin":0.12}
{"target gene":"hd","dsRNA no.":1,"replicate 1, z-score of dpERK with insulin":-0.15,"replicate 2, z-score of dpERK with insulin":0.37}
{"target gene":"Cog3","dsRNA no.":1,"replicate 1, z-score of dpERK with insulin":0.37,"replicate 2, z-score of dpERK with insulin":0.84}

The list goes on (4 carried over from the part before).
{"target gene":"CG7702","dsRNA no.":1,"replicate 1, z-score of dpERK with insulin":0.8,"replicate 2, z-score of dpERK with insulin":0.15}
{"target gene":"Ppat-Dpck","dsRNA no.":1,"replicate 1, z-score of dpERK with insulin":-0.58,"replicate 2, z-score of dpERK with insulin":0.12}
{"target gene":"hd","dsRNA no.":1,"replicate 1, z-score of dpERK with insulin":-0.15,"replicate 2, z-score of dpERK with insulin":0.37}
{"target gene":"Cog3","dsRNA no.":1,"replicate 1, z-score of dpERK with insulin":0.37,"replicate 2, z-score of dpERK with insulin":0.84}
{"target gene":"CG30287","dsRNA no.":1,"replicate 1, z-score of dpERK with insulin":-1.08,"replicate 2, z-score of dpERK with insulin":-0.63}
{"target gene":"Pkn","dsRNA no.":1,"replicate 1, z-score of dpERK with insulin":-2.06,"replicate 2, z-score of dpERK with insulin":-1.43}
{"target gene":"Pkn","dsRNA no.":2,"replicate 1, z-score of dpERK with insulin":0.22,"replicate 2, z-score of dpERK with insulin":0.24}
{"target gene":"Cc2d2a","dsRNA no.":1,"replicate 1, z-score of dpERK with insulin":-0.48,"replicate 2, z-score of dpERK with insulin":0.13}
{"target gene":"Cc2d2a","dsRNA no.":2,"replicate 1, z-score of dpERK with insulin":-0.08,"replicate 2, z-score of dpERK with insulin":0.61}
{"target gene":"Or30a","dsRNA no.":1,"replicate 1, z-score of dpERK with insulin":-0.37,"replicate 2, z-score of dpERK with insulin":0.19}
{"target gene":"TwdlP","dsRNA no.":1,"replicate 1, z-score of dpERK with insulin":-0.66,"replicate 2, z-score of dpERK with insulin":0.82}
{"target gene":"dila","dsRNA no.":1,"replicate 1, z-score of dpERK with insulin":0.76,"replicate 2, z-score of dpERK with insulin":1.06}
{"target gene":"CG15638","dsRNA no.":1,"replicate 1, z-score of dpERK with insulin":-0.34,"replicate 2, z-score of dpERK with insulin":-0.15}
{"target gene":"gprs","dsRNA no.":1,"replicate 1, z-score of dpERK with insulin":0.26,"replicate 2, z-score of dpERK with insulin":0.58}
{"target gene":"Ric","dsRNA no.":1,"replicate 1, z-score of dpERK with insulin":-1.05,"replicate 2, z-score of dpERK with insulin":-0.04}
{"target gene":"Nha2 + asRNA:CR43454","dsRNA no.":1,"replicate 1, z-score of dpERK with insulin":1.72,"replicate 2, z-score of dpERK with insulin":-0.27}
{"target gene":"CG34459","dsRNA no.":1,"replicate 1, z-score of dpERK with insulin":-0.7,"replicate 2, z-score of dpERK with insulin":-1.11}
{"target gene":"Prip","dsRNA no.":1,"replicate 1, z-score of dpERK with insulin":0.3,"replicate 2, z-score of dpERK with insulin":0.45}
{"target gene":"Cdc14","dsRNA no.":1,"replicate 1, z-score of dpERK with insulin":0.27,"replicate 2, z-score of dpERK with insulin":0.78}
{"target gene":"TbCMF46","dsRNA no.":1,"replicate 1, z-score of dpERK with insulin":-0.68,"replicate 2, z-score of dpERK with insulin":0.04}
{"target gene":"CG1428","dsRNA no.":1,"replicate 1, z-score of dpERK with insulin":-0.33,"replicate 2, z-score of dpERK with insulin":0.64}
{"target gene":"CG31233","dsRNA no.":1,"replicate 1, z-score of dpERK with insulin":0.93,"replicate 2, z-score of dpERK with insulin":-0.45}
{"target gene":"CG17186","dsRNA no.":1,"replicate 1, z-score of dpERK with insulin":-0.01,"replicate 2, z-score of dpERK with insulin":0}
{"target gene":"Dph4","dsRNA no.":1,"replicate 1, z-score of dpERK with insulin":-0.3,"replicate 2, z-score of dpERK with insulin":0.21}
{"target gene":"Golgin84","dsRNA no.":1,"replicate 1, z-score of dpERK with insulin":-0.51,"replicate 2, z-score of dpERK with insulin":0}
{"target gene":"CG14780","dsRNA no.":1,"replicate 1, z-score of dpERK with insulin":-0.4,"replicate 2, z-score of dpERK with insulin":-0.44}
{"target gene":"CG14803","dsRNA no.":1,"replicate 1, z-score of dpERK with insulin":0.17,"replicate 2, z-score of dpERK with insulin":1.42}
{"target gene":"Oga","dsRNA no.":1,"replicate 1, z-score of dpERK with insulin":-0.15,"replicate 2, z-score of dpERK with insulin":0.44}
{"target gene":"CG15742","dsRNA no.":1,"replicate 1, z-score of dpERK with insulin":0.08,"replicate 2, z-score of dpERK with insulin":0.67}
